Values quoted from earlier work as cited in US20030207830A1, “Mutant NDP kinases for antiviral nucleotide analog activation and therapeutic uses thereof” (priority 2002, published 2003).
At least one structure is not confirmed: it was looked up by name or label, or the drawing left a doubt.

System: NDP kinase
Details: Bourdais 1996; cited from earlier work

SMILES: Cc1cn([C@H]2C[C@H](N=[N+]=[N-])[C@@H](COP(=O)(O)OP(=O)(O)O)O2)c(=O)[nH]c1=O [AZT-DP, azido-thymidine diphosphate]
- decrease of catalytic efficiency compared to thymidine: 10,000 fold
